Common to all, as to test: odorant receptor activation (CRE luciferase / Renilla) (fold of no-odor wells); higher = more activation
Conditions in all cases: 100 µM

Assay [1] concerns OR52H1 clone 1702.
Assay [2] has as its system OR52I1 clone 1521.
Assay [3] deals with OR52I2 T132M clone 1324.
Assay [4] deals with OR52K1 clone 1163.
For assay [5], the system named is OR52K2 clone 1211.
The subject of assay [6] is OR52L1 D73N/C125R/C146R/K168T/W282R clone 1116.
Assay [7] deals with OR52L2 R169W clone 1117.
The test system of assay [8] is OR52M1 clone 1143.
Assay [9] has as its system OR52N1 clone 1191.
The test system of assay [10] is OR52N2 M228T clone 1569.
The subject of assay [11] is OR52N4 T106I/L167R/N218I clone 1127.
Assay [12] concerns OR52N5 clone 1238.
Assay [13] concerns OR52P1 clone 1221.
The subject of assay [14] is OR52R1 I129T/N201Y/S245A clone 1705.
The test system of assay [15] is OR52W1 clone 1234.
The subject of assay [16] is OR56A1 clone 1114.
In assay [17] the test system is OR56A3 M51T clone 1128.
In assay [18] the test system is OR56A4 clone 1724.
Assay [19] deals with OR56A5 clone 1708.
Assay [20] concerns OR56B1 C106R clone 1168.

“And” between values parts separate entries of the source, which are not always exact repeats. Equal entries are not always repeated. Some of the results follow. Single wells; the ratio to wells without odorant was worked out here, and repeats agree poorly.

Take `CCOc1cc(C=O)ccc1O` [ethyl vanillin]: the odorant receptor activation was 0.881 in [1]; 1.11 and 2.17 and 1.24 in assay [2]; 3.23 and 1.31 in [3]; 1.73 and 1.04 in [4]; 1.44 and 1.02 in assay [5]; 1.33 in assay [6]. Also, the odorant receptor activation in assay [7] was 1.15; in assay [8], 1.79 and 1.14; in [9] it was 1.61 and 1.12; in assay [10], 1.13; in [11], 1.12; in assay [12] it was 0.928. For the same compound, the odorant receptor activation in [13] is 1.51 and 1.11; in assay [14], 0.882; in [15] it was 1.15; in assay [16], 0.826 and 0.797; in assay [17], 1.92 and 1.33; in [18], 0.948. The odorant receptor activation in [19] is 1.1; in assay [20], 1.12 and 1.34.

As for `CS` [methanethiol], the odorant receptor activation is 1.15 in [1]; 0.885 in assay [2]; 0.868 in assay [3]; 0.787 in assay [4]; 0.992 in assay [5]; 1.04 in assay [6]. Also, the odorant receptor activation in assay [7] stood at 1.03; in assay [8], 0.809; in assay [9] it was 1.31; in assay [10] it was 0.75; in [11], 0.78; in [12], 0.888. For the same compound, the odorant receptor activation was found to be 0.93 in [13]; 0.974 in assay [14]; 0.757 in [15]; 1 in assay [16]; 1.49 in [17]; 0.682 in assay [18]. The odorant receptor activation in [19] is 1.33; in assay [20], 0.802.

As for `CCCCOC(C)=O` [butyl acetate], the odorant receptor activation in assay [1] was 1.04; in assay [2], 0.854; in assay [3], 0.925; in assay [4], 0.974; in assay [5], 0.952; in [6], 1.24. Besides, the odorant receptor activation in [7] came out at 1.19; in [8], 0.854; in assay [9] it was 0.908; in [10] it was 0.619; in assay [11], 0.787; in [12] it was 0.308. The odorant receptor activation is 1.19 in [13]; 0.677 in assay [14]; 1.05 in assay [15]; 0.823 in assay [16]; 0.85 in [17]; 0.794 in assay [18]. Further, the odorant receptor activation in [19] was 0.989; in assay [20], 1.33.

Turning to `CCC(C)=O` [2-butanone], the odorant receptor activation in [1] amounted to 0.714; in [2], 1.1; in [3], 0.957; in [4] it was 0.747; in assay [5], 0.663; in assay [6] it was 14.9. The odorant receptor activation is 18.3 in assay [7]; 1.21 in assay [8]; 0.879 in [9]; 0.76 in [10]; 0.885 in assay [11]; 0.534 in [12]. For the same compound, the odorant receptor activation in assay [13] worked out at 0.8; in [14], 0.87; in assay [15] it was 0.894; in [16], 17.8; in assay [17], 1.44; in assay [18], 1.15. In addition, the odorant receptor activation in [19] was 0.902; in assay [20], 0.664.

These data come from the odorant receptor screen of Mainland et al. (2015).
